From paper PMC3577733
Results are given in words; binding and its absence hold for the method and conditions named. Some binding calls cover weakened binding; strength is not graded here. Sequences can lack the tags named with a protein.

The chains behind the UniProt entries cited, without tags or fusion partners.
UniProt P49597: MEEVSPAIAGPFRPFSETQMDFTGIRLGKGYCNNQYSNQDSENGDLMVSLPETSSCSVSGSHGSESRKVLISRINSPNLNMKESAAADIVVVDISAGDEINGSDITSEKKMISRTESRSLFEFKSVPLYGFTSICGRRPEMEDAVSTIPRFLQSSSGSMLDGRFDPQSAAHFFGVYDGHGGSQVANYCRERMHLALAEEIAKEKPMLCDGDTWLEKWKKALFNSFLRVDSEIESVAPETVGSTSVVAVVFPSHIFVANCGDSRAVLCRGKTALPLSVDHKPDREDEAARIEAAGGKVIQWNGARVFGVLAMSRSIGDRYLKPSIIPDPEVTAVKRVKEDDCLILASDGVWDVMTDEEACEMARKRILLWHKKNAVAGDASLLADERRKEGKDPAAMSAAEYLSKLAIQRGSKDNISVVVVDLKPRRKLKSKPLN

Key:
[1] = biological target: T1, AtPYL9 (Arabidopsis PYL9), yeast two-hybrid fusion (Arabidopsis thaliana) (UniProt Q84MC7); test: two-hybrid; yeast AH109, BD (pDEST32) and AD (pDEST22) constructs co-transformed; growth on SD/-T-L-H and SD/-T-L-H-A without ABA
T1 sequence: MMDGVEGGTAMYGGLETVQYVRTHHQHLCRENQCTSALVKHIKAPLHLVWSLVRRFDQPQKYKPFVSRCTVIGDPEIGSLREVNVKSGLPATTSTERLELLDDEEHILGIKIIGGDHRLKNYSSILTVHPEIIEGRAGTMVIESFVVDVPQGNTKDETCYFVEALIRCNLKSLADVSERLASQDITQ

[2] = biological target: T1, AtPYL9 (Arabidopsis PYL9), yeast two-hybrid fusion (Arabidopsis thaliana); test: two-hybrid; yeast AH109, BD (pDEST32) and AD (pDEST22) constructs co-transformed; growth on SD/-T-L-H-A supplemented with 10 µM ABA

AtABI1 (Arabidopsis ABI1, AT4G26080), yeast two-hybrid fusion (from UniProt P49597 1-434) (enzyme)
binding [1]: binds
binding [2]: binds
